Broadly, the EC50 is the concentration giving half of the maximal effect. Read a low EC50 as higher potency in that assay. A word on the IC50: it is the concentration at which inhibition is half-maximal. Lower therefore signals inhibition by little substance.

Experimental findings from paper PMC3229538, “Inhibition of G Protein-Activated Inwardly Rectifying K^+ Channels by Different Classes of Antidepressants” (PLoS ONE, 2011) are described below.

One experiment concerns the target T1, GIRK1/2 channels (Mus musculus, UniProt P48542+P63250).
T1 construct: expressed in transfected cells; host or cells: Xenopus laevis oocytes injected with in vitro transcribed mRNA
T1 sequence (P63250 1-501): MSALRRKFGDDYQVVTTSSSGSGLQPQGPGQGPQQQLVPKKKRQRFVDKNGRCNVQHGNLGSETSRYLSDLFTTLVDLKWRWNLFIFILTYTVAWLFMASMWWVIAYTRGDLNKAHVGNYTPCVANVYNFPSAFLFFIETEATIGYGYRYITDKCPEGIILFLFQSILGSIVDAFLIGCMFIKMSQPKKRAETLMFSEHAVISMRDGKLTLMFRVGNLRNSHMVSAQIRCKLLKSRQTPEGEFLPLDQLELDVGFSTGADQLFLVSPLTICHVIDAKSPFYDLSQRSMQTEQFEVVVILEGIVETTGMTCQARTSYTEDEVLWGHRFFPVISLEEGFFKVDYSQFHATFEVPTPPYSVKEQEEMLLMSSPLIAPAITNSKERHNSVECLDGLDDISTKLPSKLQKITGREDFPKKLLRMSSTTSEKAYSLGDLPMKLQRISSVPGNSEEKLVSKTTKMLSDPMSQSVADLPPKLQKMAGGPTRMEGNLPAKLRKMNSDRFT
T1 sequence (P48542 1-425): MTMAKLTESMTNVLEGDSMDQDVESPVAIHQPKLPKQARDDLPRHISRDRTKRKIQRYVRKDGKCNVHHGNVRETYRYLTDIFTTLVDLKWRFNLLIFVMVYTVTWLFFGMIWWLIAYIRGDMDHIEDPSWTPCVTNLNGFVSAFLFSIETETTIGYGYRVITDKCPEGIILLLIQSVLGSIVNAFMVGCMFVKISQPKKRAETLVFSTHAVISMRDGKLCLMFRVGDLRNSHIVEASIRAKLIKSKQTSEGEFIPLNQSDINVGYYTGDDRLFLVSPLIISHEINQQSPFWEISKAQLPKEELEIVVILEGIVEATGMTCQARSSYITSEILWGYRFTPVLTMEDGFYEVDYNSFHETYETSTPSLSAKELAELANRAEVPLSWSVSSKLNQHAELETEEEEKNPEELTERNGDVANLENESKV
The experiment can be described thus: Inhibition of basal GIRK currents, Xenopus oocyte expression assay, two-electrode voltage clamp. The experiment is classed as cell-based. The note with it: for EC50: basal GIRK currents, −70 mV, hK solution 96 mM K+; for IC50: concentration reducing basal GIRK currents by 50%. The method, then:
(§1) Microelectrodes were filled with 3 M KCl. […] The data are expressed as mean ± SEM, and n is the number of oocytes tested. The statistical analysis of differences between groups was performed using paired t-test, one-way analysis of variance (ANOVA), or two-way ANOVA followed by the Tukey-Kramer post hoc test. Values of P<0.05 were considered statistically significant.
On the technique in general: In two-electrode clamp one electrode senses voltage and the other passes current.

In a further experiment the target is T2, GIRK1/4 channels (Mus musculus, UniProt P48545+P63250).
T2 construct: expressed in transfected cells; host or cells: Xenopus laevis oocytes injected with in vitro transcribed mRNA
T2 sequence (P63250 1-501): T1 sequence (P63250 1-501)
T2 sequence (P48545 1-419): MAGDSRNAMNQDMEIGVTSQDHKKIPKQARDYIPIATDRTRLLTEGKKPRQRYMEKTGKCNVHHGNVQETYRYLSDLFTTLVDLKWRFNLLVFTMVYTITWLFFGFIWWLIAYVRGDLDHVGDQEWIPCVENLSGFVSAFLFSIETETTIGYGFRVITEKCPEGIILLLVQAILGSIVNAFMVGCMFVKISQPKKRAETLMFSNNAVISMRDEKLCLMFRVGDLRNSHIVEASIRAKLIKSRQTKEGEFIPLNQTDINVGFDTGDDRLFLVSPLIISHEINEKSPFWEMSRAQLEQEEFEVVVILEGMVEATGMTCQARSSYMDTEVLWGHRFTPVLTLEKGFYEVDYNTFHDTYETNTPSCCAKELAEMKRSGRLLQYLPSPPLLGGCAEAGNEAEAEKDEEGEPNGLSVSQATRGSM
Described as above. The experiment is classed as cell-based. Conditions: for EC50: basal GIRK currents, −70 mV, hK solution 96 mM K+. The method, then: as §1

Experiment [1] deals with GIRK1/2 channels activated by ethanol (Mus musculus, UniProt P48542+P63250). The experiment can be described thus: cell-based.
Experiment [2] addresses T3, GIRK1/2 channels activated by GTPγS (Mus musculus, UniProt P48542+P63250).
T3 construct: expressed in transfected cells; host or cells: Xenopus laevis oocytes injected with in vitro transcribed mRNA
T3 sequence (P63250 1-501): T1 sequence (P63250 1-501)
T3 sequence (P48542 1-425): T1 sequence (P48542 1-425)
In words: Inhibition of total GIRK currents (GTPγS-induced and basal) in GTPγS-injected oocytes. The experiment is classed as cell-based. The text has this: Microelectrodes were filled with 3 M KCl. […] GIRK channels are activated by various Gi/o-protein-coupled receptors through the direct action of G-protein βγ subunits released from the heterotrimeric G-protein complex, [33].

Structures are written as SMILES. Structures can show the parent of a compound that is named as a salt.

On GIRK1/2 channels, `Clc1ccc2c(c1)C(N1CCNCC1)=Nc1ccccc1O2` [amoxapine, Amoxapine] came in with an EC50 of 38.7 ± 6.2 µM and an IC50 of 181 ± 48.3 µM. Further, on GIRK1/4 channels, the midpoint of the response, the EC50, lay at 17.7 ± 4.4 µM.
As for `CN[C@H]1CC[C@@H](c2ccc(Cl)c(Cl)c2)c2ccccc21` [sertraline, Sertraline hydrochloride], the EC50 at GIRK1/2 channels was 11.7 ± 1 µM; on GIRK1/4 channels, 12.6 ± 2.5 µM. The IC50 against GIRK1/2 channels stood at 29.1 ± 3.4 µM; against GIRK1/4 channels (concentration reducing basal GIRK currents by 50%), 36.7 ± 7.8 µM; in experiment [1], 29.6 ± 5.5 µM; in experiment [2] it was 18.1 ± 3 µM.
